These are yes or no findings as the source states them, for the method shown. Some entries that bind do so weakly or less than the wild type.
Key:
[1] = molecular target: Recombinant Rhesus OX40L (Leader Sequence, FLAG and Isoleucine zipper included) (Rhesus (Macaca mulatta)); test: SPR (ProteOn XPR36), antibody captured, rhesus OX40L at 256 nM; off-rate could not be resolved
[2] = molecular target: Recombinant Human OX40L (Leader sequence, Isoleucine Zipper and FLAG Sequence Included) (human); test: HTRF receptor neutralisation (grade): antibody titrated against biotinylated hOX40L / OX40R-Fc-AF647
[3] = molecular target: Recombinant Human OX40L (Leader sequence, Isoleucine Zipper and FLAG Sequence Included) (human); test: SPR (ProteOn XPR36), antibody captured, OX40L at 256 nM; off-rate could not be resolved

Measured: binding

B1: 10A07 (human) (antibody, human IgG4 S228P, kappa, V domains shown)
VH: EVQLVESGGVLVQPGGSLRLSCAASGFTFSSYIMTWVRQAPGKGLEWVSGISGSGGGTYYADSMKGRFTISRDNSKNTLYLQMNSLRVEDTAVYYCAKDRLGPITLVRGGYYYGMDVWGQGTTVTVSS
VL: DIQMTQSPSSLSASVGDRVTITCRASQSISDYLNWYQQKPGKAPKFLIYAASSLQSGVPSRFSGSGSGTDFTLTVSSLQPEDFATYYCQQSYSTPRTFGQGTRVEIKR
binds: all assays above

— patent US20170260279A1
